# Measurements: US20230227838A1, “ENHANCED CELL SURVIVAL AGAINST BIOTIC AND ABIOTIC STRESSES THROUGH SALICYLICK ACID-INDUCED NPR1 CONDENSATES” (priority 2020, published 2023)
# System: sim3-GFP
# Assay: Quantitative LC-MS/MS of sim3-GFP interactome (SINC components)
# Set-up: species or system Arabidopsis thaliana
# Settings: protein enrichment in the sim3-GFP interactome (SINC components), SA-treated samples versus mock
row,Molecule,Normalized Fold Change: SA vs Mock
1,"AT5G05000 (protein, UniProt Q38906 2-313, looked up) Translocase of chloroplast …: AALQTLREWIGIQQFPPATQSKLLEILGKYKEEDVSSLTVLVMGKGGVGKSSTVNSVIGEKAAAVSTFQSEGLRPTLVSRTRSGFTLNIIDTPGLIEGGYVNDQAINIIKRFLLNMTIDVLLYVDRLDVYRVDDLDRQVVGAITDAFGKEIWKKSALVLTHAQFSPPDGLNYNHFVSKRSNALLKVIQTGAQLKKQDLQGFSIPVILVENSGRCHKNESDEKILPCGTSWIPNLFNKITEISFNGNKAIHVDKKLVEGPNPNERGKKLIPLMFAFQYLLVMKPLVRAIKSDVSRESKPAWELRDSGLASRRS",9.761
2,AT4G31500 (protein) MDLLLIIAGLVAAAAFFFLRSTTKKSLRLPPGPKGLPIIGNLHQMEKFNPQHFLFRLSKLYGPIFTMKIGGRRLAVISSAELAKELLKTQDLNFTARPLLKGQQTMSYQGRELGFGQYTAYYREMRKMCMVNLFSPNRVASFRPVREEECQRMMDKIYKAADQSGTVDLSELLLSFTNCVVCRQAFGKRYNEYGTEMKRFIDILYETQALLGTLFFSDLFPYFGFLDNLTGLSARLKKAFKELDTYLQELLDETLDPNRPKQETESFIDLLMQIYKDQPFSIKFTHENVKAMILDIVVPGTDTAAAVVVWAMTYLIKYPEAMKKAQDEVRSVIGDKGYVSEEDIPNLPYLKAVIKESLRLEPVIPILLHRETIADAKIGGYDIPAKTIIQVNAWAVSRDTAAWGDNPNEFIPERFMNEHKGVDFKGQDFELLPFGSGRRMCPAMHLGIAMVEIPFANLLYKFDWSLPKGIKPEDIKMDVMTGLAMHKKEHLVLAPTKHI,2.418
3,"AT4G09730 (protein, UniProt Q56X76 1-621, looked up) DEAD-box ATP-dependent RNA …: MVGASRTILSLSLSSSLFTFSKIPHVFPFLRLHKPRFHHAFRPLYSAAATTSSPTTETNVTDPDQLKHTILLERLRLRHLKESAKPPQQRPSSVVGVEEESSIRKKSKKLVENFQELGLSEEVMGALQELNIEVPTEIQCIGIPAVMERKSVVLGSHTGSGKTLAYLLPIVQLMREDEANLGKKTKPRRPRTVVLCPTRELSEQVYRVAKSISHHARFRSILVSGGSRIRPQEDSLNNAIDMVVGTPGRILQHIEEGNMVYGDIAYLVLDEADTMFDRGFGPEIRKFLAPLNQRALKTNDQGFQTVLVTATMTMAVQKLVDEEFQGIEHLRTSTLHKKIANARHDFIKLSGGEDKLEALLQVLEPSLAKGSKVMVFCNTLNSSRAVDHYLSENQISTVNYHGEVPAEQRVENLKKFKDEEGDCPTLVCTDLAARGLDLDVDHVVMFDFPKNSIDYLHRTGRTARMGAKGKVTSLVSRKDQMLAARIEEAMRNNESLESLTTDNVRRDAARTHITQEKGRSVKQIREVSKQRNSRDKPSSSSPPARSTGGKTPVRKSSSSSFSKPRKASSPPEKSSKPKRKILKTVGSRSIAARGKTGSDRRPGKKLSVVGFRGKSSSARAS",46.88
4,"AT4G37760 (protein, UniProt Q8VYH2 1-525, looked up) Squalene epoxidase 3: MAPTIFVDHCILTTTFVASLFAFLLLYVLRRRSKTIHGSVNVRNGTLTVKSGTDVDIIIVGAGVAGAALAHTLGKEGRRVHVIERDLTEPDRIVGELLQPGGYLKLIELGLEDCVKDIDAQRVLGYALFKDGKHTKLSYPLDQFDSDVAGRSFHNGRFVQRMREKASLLPNVRMEQGTVTSLVEENGIIKGVQYKTKDGQELKSFAPLTIVCDGCFSNLRRSLCKPKVEVPSNFVGLVLENCELPFPNHGHVVLGDPSPILFYPISSSEVRCLVDVPGSKLPSVASGEMAHHLKTMVAPQVPPQIRDAFISAVEKGNIRTMPNRSMPADPIHTPGALLLGDAFNMRHPLTGGGMTVALSDIVILRDLLNPLVDLTNKESLSKYIESFYTLRKPVASTINTLAGALYKVFLASPDDARSEMRRACFDYLSLGGVCSSGPVALLSGLNPRPMSLVLHFFAVAIFGVGRLLVPLPSVKRLWLGARLISSASGIIFPIIKAEGVRQMFFPRTIPAIYRAPPTPSSSSPQ",50.12
5,AT1G78380 (protein) MANEVILLDFWPSMFGMRTRIALREKGVEFEYREEDLRNKSPLLLQMNPIHKKIPVLIHNGKPVNESIIQVQYIDEVWSHKNPILPSDPYLRAQARFWADFIDKKLYDAQRKVWATKGEEQEAGKKDFIEILKTLESELGDKPYFSGDDFGYVDIALIGFYTWFPAYEKFANFSIESEVPKLIAWVKKCLQRESVAKSLPDPEKVTEFVSELRKKFVPE,2.584
6,"AT4G34135 (protein, UniProt Q94C57 1-483, looked up) UDP-glucosyl transferase 73B2: MGSDHHHRKLHVMFFPFMAYGHMIPTLDMAKLFSSRGAKSTILTTSLNSKILQKPIDTFKNLNPGLEIDIQIFNFPCVELGLPEGCENVDFFTSNNNDDKNEMIVKFFFSTRFFKDQLEKLLGTTRPDCLIADMFFPWATEAAGKFNVPRLVFHGTGYFSLCAGYCIGVHKPQKRVASSSEPFVIPELPGNIVITEEQIIDGDGESDMGKFMTEVRESEVKSSGVVLNSFYELEHDYADFYKSCVQKRAWHIGPLSVYNRGFEEKAERGKKANIDEAECLKWLDSKKPNSVIYVSFGSVAFFKNEQLFEIAAGLEASGTSFIWVVRKTKDDREEWLPEGFEERVKGKGMIIRGWAPQVLILDHQATGGFVTHCGWNSLLEGVAAGLPMVTWPVGAEQFYNEKLVTQVLRTGVSVGASKHMKVMMGDFISREKVDKAVREVLAGEAAEERRRRAKKLAAMAKAAVEEGGSSFNDLNSFMEEFSS",8.082
7,AT4G05420 (protein) MSSWNYVVTAHKPTSVTHSCVGNFTSPQELNLIVAKCTRIEIHLLTPQGLQPMLDVPIYGRIATLELFRPHGEAQDFLFIATERYKFCVLQWDPESSELITRAMGDVSDRIGRPTDNGQIGIIDPDCRLIGLHLYDGLFKVIPFDNKGQLKEAFNIRLEELQVLDIKFLFGCAKPTIAVLYQDNKDARHVKTYEVSLKDKDFVEGPWSQNSLDNGADLLIPVPPPLCGVLIIGEETIVYCSASAFKAIPIRPSITKAYGRVDVDGSRYLLGDHAGMIHLLVITHEKEKVTGLKIELLGETSIASTISYLDNAVVFVGSSYGDSQLVKLNLHPDAKGSYVEVLERYINLGPIVDFCVVDLERQGQGQVVTCSGAFKDGSLRVVRNGIGINEQASVELQGIKGMWSLKSSIDEAFDTFLVVSFISETRILAMNLEDELEETEIEGFLSQVQTLFCHDAVYNQLVQVTSNSVRLVSSTTRELRDEWHAPAGFTVNVATANASQVLLATGGGHLVYLEIGDGKLTEVQHALLEYEVSCLDINPIGDNPNYSQLAAVGMWTDISVRIFSLPELTLITKEQLGGEIIPRSVLLCAFEGISYLLCALGDGHLLNFQMDTTTGQLKDRKKVSLGTQPITLRTFSSKSATHVFAASDRPTVIYSSNKKLLYSNVNLKEVSHMCPFNSAAFPDSLAIAREGELTIGTIDDIQKLHIRTIPLGEHARRICHQEQTRTFGICSLGNQSNSEESEMHFVRLLDDQTFEFMSTYPLDSFEYGCSILSCSFTEDKNVYYCVGTAYVLPEENEPTKGRILVFIVEDGRLQLIAEKETKGAVYSLNAFNGKLLAAINQKIQLYKWMLRDDGTRELQSECGHHGHILALYVQTRGDFIVVGDLMKSISLLLYKHEEGAIEERARDYNANWMSAVEILDDDIYLGAENNFNLLTVKKNSEGATDEERGRLEVVGEYHLGEFVNRFRHGSLVMRLPDSEIGQIPTVIFGTVNGVIGVIASLPQEQYTFLEKLQSSLRKVIKGVGGLSHEQWRSFNNEKRTAEARNFLDGDLIESFLDLSRNKMEDISKSMNVQVEELCKRVEELTRLH,2.522
8,AT3G26830 (protein) MSVFLCFLVLLPLILIFLNVLKPSKYKLPPGPKKLPIIGNLHQRRTLHPRNRRNLAEMYGPVALLQYGFVPVVAISSKEAAEEVLKINDLECCSRPEAAGMRATFYNFKDIGMAPFGDEWSLMRKLSVVELFSVKKLQSFKYIIEEENNLCVKKLSEFATRQSPVNLERAIFTLVGNIVCRIGYGINLYECDFFEADRVVDLVLKAEAVIRETVFSDFFPGRIGRFIDCISGQNRRLKNNFSVVDTFFQNVLNEHLKPGRESSTIVDLMIDMKKKQENDGDALKFTTDHLKGMISDIFVAGIGGVAGITLWGMTELIRNPRVMKKVQDEIRTTLGDKKERIKEEDLNQLHYFKLVVKETLRLHPTTPLLLPRQTMSHIKIQGYDVPAKTQILVNVYAMGRDPKLWENADEFNPDRFLDSSVDFKGKNYEFIPFGSGRRICPGMTMGTILVEMALLNLLYFFDWGLAKQEEAKEIINGEENFLAFFQVLHH,14.61
9,"AT2G43410 (protein, UniProt Q8LPQ9 1-901, looked up) Flowering time control …: MALSMKPFRADDSGFQSNNLWVGSLTPETTESDLTELFGRYGDIDRITVYSSRGFAFIYYRHVEEAVAAKEALQGANLNGSQIKIEYARPAKPCKSLWVGGIGPNVSKDDLEEEFSKFGKIEDFRFLRERKTAFIDYYEMDDALQAKSMNGKPMGGSFLRVDFLRSQAPKKEQWAGSYDNRNGNMNHKPQYPHSYEDFKGDVQPSKVLWIGFPPTATQCNDEQILHNAMILFGEIERVKSYPSRNFALVEFRSAEEARQCKEGLQGRLFNNPRIKIMYSNDELPPEQDDTSFYSGMKRSRTDMFNNDPSFVSSPHSTGIPGSMRPLRGTNERSYNGAEYNDVVGKEPNWRRPSANGTGILPSPTGPGILPSPAQGTRRPMRSNPDSWEGYDPAQLVRESKRTRRDGSVDGFTPMGVDERSFGRGSVAARPIRGPPDSDHIWRGMIAKGGTPVCCARCVPMGKGIETKLPEVVNCSARTDLNMLAKHYAVAIGCEIVFFVPDREEDFASYTEFLRYLSSKDRAGVAKLDDGTTLFLVPPSDFLTDVLQVTRQERLYGVVLKLPPPAVPVTASYRQESQSNPLHYMDQARDSPANASHSLYPPRENYIRGAPEHLTAASKPSVSEPLRIPNNAAPQAGVSLTPELLATLASILPATSQPAAPESHQPMSGPSTVVSTAHQSNGLYNGEAPSQAWKRGPQTVHDASNQSFQQYGNQYTPAGQLPPPPSRYPPASNNPNYTSGMVHGNMQYQSQSVNMPQLSPLPNMPHNNYSMYTQGSSNHPVSQPMVQQYQPEASMPNQNYGPIPSYQQANFHGVTTNQAQNLNPSQFQAAMQPPADKANLEPQNQALRLQPMISGDGQGTTDGEVDKNQRYQSTLQFAANLLLQIQQKQQQQSSGTPAGQGP",4.866
